In the supplement of paper PMC10849652:
The other results are listed elsewhere or left out.

Amino acid sequences for entries named in this document (tags omitted). A change or cut given only in a name is not applied to a line headed by its entry.
UniProt P28289: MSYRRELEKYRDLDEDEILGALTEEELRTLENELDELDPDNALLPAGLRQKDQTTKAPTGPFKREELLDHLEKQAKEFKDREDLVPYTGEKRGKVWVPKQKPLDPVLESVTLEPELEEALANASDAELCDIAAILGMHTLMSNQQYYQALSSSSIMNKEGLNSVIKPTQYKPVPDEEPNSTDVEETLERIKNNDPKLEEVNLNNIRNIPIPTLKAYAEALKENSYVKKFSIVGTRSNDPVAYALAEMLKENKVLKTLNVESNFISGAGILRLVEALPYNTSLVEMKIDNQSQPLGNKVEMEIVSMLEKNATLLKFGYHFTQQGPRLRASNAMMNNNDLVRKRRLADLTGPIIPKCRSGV
UniProt Q9BVC6: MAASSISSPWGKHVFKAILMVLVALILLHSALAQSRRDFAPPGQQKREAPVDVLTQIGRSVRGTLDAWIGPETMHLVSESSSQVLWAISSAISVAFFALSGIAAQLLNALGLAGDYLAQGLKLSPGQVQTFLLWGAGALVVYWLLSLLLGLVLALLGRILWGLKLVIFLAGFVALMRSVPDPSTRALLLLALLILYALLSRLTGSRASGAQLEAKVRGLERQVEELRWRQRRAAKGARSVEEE
UniProt Q9H061: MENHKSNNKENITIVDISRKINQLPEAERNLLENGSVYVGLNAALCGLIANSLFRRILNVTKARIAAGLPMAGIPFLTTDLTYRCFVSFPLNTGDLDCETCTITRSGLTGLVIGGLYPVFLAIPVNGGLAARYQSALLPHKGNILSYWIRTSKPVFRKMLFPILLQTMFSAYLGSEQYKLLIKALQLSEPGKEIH
UniProt P63313: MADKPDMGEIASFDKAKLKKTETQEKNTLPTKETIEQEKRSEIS
UniProt Q9HC07: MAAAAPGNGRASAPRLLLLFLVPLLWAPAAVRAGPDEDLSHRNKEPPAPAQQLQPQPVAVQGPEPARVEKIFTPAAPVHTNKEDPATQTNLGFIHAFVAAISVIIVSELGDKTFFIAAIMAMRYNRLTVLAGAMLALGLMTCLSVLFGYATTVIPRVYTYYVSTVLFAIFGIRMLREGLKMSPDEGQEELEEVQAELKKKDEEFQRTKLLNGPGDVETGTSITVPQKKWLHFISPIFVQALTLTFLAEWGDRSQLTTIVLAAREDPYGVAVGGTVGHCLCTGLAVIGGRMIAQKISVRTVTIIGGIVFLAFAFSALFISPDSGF
UniProt Q86UB9: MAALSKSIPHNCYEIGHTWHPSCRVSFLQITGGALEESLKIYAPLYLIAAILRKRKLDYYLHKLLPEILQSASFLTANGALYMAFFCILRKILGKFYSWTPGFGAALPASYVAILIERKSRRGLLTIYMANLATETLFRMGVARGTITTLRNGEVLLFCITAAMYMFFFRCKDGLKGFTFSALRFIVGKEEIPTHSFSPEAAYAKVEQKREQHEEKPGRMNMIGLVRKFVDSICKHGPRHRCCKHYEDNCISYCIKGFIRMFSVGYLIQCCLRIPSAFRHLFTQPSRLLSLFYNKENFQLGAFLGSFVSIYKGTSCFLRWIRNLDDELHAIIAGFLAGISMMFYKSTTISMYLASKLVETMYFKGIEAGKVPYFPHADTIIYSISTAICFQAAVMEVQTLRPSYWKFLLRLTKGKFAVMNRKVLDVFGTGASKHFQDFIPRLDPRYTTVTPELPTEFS
UniProt P82094: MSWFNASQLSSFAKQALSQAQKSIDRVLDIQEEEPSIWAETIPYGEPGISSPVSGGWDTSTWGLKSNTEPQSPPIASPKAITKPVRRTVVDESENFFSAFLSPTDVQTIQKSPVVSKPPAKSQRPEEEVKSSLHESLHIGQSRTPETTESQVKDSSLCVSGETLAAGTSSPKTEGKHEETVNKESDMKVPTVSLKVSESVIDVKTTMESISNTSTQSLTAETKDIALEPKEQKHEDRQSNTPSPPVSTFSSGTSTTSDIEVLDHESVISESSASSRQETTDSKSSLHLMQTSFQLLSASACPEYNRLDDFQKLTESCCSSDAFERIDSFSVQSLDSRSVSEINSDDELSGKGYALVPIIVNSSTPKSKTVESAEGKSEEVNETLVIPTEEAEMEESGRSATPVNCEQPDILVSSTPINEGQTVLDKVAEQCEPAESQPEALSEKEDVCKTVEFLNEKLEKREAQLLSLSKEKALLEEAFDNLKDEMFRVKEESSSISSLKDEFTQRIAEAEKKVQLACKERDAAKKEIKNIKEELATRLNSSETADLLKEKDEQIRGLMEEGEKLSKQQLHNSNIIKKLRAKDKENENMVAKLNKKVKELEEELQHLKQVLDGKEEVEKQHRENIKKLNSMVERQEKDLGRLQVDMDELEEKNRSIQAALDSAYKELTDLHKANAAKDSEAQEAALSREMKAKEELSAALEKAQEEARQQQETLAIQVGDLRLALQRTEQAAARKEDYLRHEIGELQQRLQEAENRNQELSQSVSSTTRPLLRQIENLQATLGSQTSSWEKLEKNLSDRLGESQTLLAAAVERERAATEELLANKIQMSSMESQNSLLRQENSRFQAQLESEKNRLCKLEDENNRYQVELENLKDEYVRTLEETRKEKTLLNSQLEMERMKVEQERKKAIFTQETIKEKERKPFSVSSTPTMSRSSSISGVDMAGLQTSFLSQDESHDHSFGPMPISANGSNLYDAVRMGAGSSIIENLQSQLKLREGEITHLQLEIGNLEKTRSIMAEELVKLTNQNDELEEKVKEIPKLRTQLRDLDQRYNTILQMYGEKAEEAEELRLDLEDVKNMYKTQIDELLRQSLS
UniProt Q8TBQ9: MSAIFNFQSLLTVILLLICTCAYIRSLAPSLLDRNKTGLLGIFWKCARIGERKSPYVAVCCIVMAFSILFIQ
UniProt Q7Z7H5: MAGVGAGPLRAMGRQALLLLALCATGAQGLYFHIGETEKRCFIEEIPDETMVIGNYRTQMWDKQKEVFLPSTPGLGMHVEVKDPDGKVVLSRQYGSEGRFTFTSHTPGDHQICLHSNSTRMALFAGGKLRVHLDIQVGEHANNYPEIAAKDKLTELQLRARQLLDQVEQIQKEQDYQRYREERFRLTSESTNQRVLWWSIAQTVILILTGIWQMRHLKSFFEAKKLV
UniProt Q04727: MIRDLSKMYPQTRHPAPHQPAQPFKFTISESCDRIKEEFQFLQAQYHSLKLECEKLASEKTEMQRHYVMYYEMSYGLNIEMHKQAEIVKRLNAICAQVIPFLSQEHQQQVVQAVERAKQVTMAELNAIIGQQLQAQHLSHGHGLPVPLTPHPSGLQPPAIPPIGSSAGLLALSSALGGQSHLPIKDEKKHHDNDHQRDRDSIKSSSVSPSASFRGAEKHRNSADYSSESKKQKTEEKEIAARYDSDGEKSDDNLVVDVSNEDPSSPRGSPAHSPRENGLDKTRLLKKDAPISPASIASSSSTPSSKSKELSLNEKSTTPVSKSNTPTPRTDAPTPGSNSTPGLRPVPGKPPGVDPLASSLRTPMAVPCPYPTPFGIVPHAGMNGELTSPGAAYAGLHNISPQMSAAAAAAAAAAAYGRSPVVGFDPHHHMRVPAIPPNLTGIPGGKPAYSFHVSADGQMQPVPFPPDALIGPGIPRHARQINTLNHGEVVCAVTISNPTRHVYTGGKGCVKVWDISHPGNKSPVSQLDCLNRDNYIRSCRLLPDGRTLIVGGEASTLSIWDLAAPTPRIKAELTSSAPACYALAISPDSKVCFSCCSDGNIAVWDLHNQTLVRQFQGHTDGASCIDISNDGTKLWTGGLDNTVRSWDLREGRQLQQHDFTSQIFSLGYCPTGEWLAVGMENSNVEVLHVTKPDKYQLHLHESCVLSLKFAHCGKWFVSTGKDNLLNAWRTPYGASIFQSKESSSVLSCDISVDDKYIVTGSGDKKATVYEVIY
UniProt P42167: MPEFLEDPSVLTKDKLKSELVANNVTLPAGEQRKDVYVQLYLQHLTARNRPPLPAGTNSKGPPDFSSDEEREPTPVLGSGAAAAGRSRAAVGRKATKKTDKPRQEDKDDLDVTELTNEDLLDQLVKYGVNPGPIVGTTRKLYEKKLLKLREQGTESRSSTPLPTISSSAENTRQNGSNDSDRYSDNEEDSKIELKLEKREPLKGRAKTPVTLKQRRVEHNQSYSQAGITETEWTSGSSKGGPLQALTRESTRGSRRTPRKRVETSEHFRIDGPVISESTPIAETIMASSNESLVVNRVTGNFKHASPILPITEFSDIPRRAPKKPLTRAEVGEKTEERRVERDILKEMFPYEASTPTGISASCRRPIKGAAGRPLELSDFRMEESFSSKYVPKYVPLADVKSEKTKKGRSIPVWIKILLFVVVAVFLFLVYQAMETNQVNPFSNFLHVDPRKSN
UniProt Q9NX00: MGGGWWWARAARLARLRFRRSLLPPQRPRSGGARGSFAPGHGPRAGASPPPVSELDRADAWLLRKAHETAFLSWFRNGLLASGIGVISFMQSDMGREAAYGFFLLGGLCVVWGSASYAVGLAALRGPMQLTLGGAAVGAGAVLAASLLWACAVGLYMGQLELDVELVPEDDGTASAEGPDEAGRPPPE
UniProt Q9Y2S6, whole entry, looked up: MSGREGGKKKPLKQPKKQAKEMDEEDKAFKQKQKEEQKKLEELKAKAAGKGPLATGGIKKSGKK
UniProt Q9NYL9: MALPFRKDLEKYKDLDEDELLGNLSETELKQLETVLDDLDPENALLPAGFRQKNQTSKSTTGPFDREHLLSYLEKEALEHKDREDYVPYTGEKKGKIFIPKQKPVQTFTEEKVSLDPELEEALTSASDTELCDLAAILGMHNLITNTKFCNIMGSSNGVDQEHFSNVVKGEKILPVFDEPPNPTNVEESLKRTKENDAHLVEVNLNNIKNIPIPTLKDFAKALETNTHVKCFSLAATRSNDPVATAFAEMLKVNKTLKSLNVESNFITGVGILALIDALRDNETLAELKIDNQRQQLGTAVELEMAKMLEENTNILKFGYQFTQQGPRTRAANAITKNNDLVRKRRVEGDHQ

Legend:
Assay in all cases: log2 fold change, soluble protein after heating vs DMSO (PISA); higher = thermal stabilisation; K562 cells, 10 uM, 30 min; active = over 0.2 and 3.5 SD of the protein, either way, in both replicates (recomputed)
[1] = compound: CS(=O)(=O)c1ccc(-c2cnc(N)c(C(=O)Nc3ccccc3)n2)cc1
Summary of the method: (§1)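 Soluble protein was quantified by TMTpro 16plex LC-MS/MS after channel sums were equalised. It was obtained as the supernatant after 21,000xg for 90 min from pooled aliquots of K562 cells (2×10^6 cells/mL, 10 μM compound, 30 min) heated for 3 min across 48°C-58°C and extracted in PBS with 0.5% NP-40 at 4°C. Thermal stability values are relative to control samples and come from duplicates. They are given as log2 fold changes.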

crizotinib = compound: C[C@@H](Oc1cc(-c2cnn(C3CCNCC3)c2)cnc1N)c1c(Cl)ccc(F)c1Cl [crizotinib]
Summary of the method: as §1

[2] = compound: C[C@@H]1COCCN1C2=NC(=NC(=C2)C3(CC3)S(=O)(=O)C)C4=C5C=CNC5=CC=C4
Summary of the method: as §1

[3] = compound: C[C@H](C1=CC=C(C=C1)C(=O)NC2=C3C=CNC3=NC=C2)N
Summary of the method: as §1

duvelisib = compound: C[C@H](Nc1ncnc2nc[nH]c12)c1cc2cccc(Cl)c2c(=O)n1-c1ccccc1 [duvelisib]
Summary of the method: as §1

gandotinib = compound: Cc1cc(Nc2cc(CN3CCOCC3)c3nc(C)c(Cc4ccc(Cl)cc4F)n3n2)n[nH]1 [gandotinib]
Summary of the method: as §1

tozasertib = compound: Cc1cc(Nc2cc(N3CCN(C)CC3)nc(Sc3ccc(NC(=O)C4CC4)cc3)n2)n[nH]1 [tozasertib]
Summary of the method: as §1

[4] = compound: Cc1cc(SCc2sc(-c3ccc(C(F)(F)F)cc3)nc2C)ccc1OCC(=O)O
Summary of the method: as §1

doramapimod = compound: Cc1ccc(-n2nc(C(C)(C)C)cc2NC(=O)Nc2ccc(OCCN3CCOCC3)c3ccccc23)cc1 [doramapimod]
Summary of the method: as §1

ispinesib = compound: Cc1ccc(C(=O)N(CCCN)[C@@H](c2nc3cc(Cl)ccc3c(=O)n2Cc2ccccc2)C(C)C)cc1 [ispinesib]
Summary of the method: as §1

bafetinib = compound: Cc1ccc(NC(=O)c2ccc(CN3CC[C@H](N(C)C)C3)c(C(F)(F)F)c2)cc1Nc1nccc(-c2cncnc2)n1 [bafetinib]
Summary of the method: as §1

[5] = compound: Cc1cccc(CC(=O)N2CCc3c2ccc(-c2cn(C)c4ncnc(N)c24)c3F)n1
Summary of the method: as §1

nilotinib = compound: Cc1cn(-c2cc(NC(=O)c3ccc(C)c(Nc4nccc(-c5cccnc5)n4)c3)cc(C(F)(F)F)c2)cn1 [nilotinib]
Summary of the method: as §1

[6] = compound: Cc1nc(Nc2n[nH]c3c2CN(C(=O)N[C@H](CN(C)C)c2ccccc2)C3(C)C)c2sccc2n1
Summary of the method: as §1

dasatinib = compound: Cc1nc(Nc2ncc(C(=O)Nc3c(C)cccc3Cl)s2)cc(N2CCN(CCO)CC2)n1 [dasatinib]
Summary of the method: as §1

[7] = compound: Cc1ncc(-c2ccnc(Nc3ccc(S(C)(=O)=O)cc3)n2)n1C(C)C
Summary of the method: as §1

[8] = compound: Cn1cc(-c2ccc3c(c2)CCN3C(=O)Cc2cccc(C(F)(F)F)c2)c2c(N)ncnc21
Summary of the method: as §1

[9] = compound: Cn1cc(-c2ccc3nnc(C(F)(F)c4ccc5ncccc5c4)n3n2)cn1
Summary of the method: as §1

tipifarnib = compound: Cn1cncc1[C@@](N)(c1ccc(Cl)cc1)c1ccc2c(c1)c(-c1cccc(Cl)c1)cc(=O)n2C [tipifarnib]
Summary of the method: as §1

mubritinib = compound: FC(F)(F)c1ccc(/C=C/c2nc(COc3ccc(CCCCn4ccnn4)cc3)co2)cc1 [mubritinib]
Summary of the method: as §1

Measured: log2 fold change

TMOD1 (UniProt P28289)
inactive: [1] -0.01 | crizotinib -0.109 | [2] -0.046 | [3] 0.199 | duvelisib -0.171 | gandotinib 0.062 | tozasertib 0.014 | [4] 0.029 | doramapimod -0.006 | ispinesib -0.072 | bafetinib 0 | [5] -0.033 | nilotinib -0.032 | [6] -0.176 | dasatinib 0.007 | [7] 0.047 | [8] -0.155 | [9] -0.017 | tipifarnib -0.098 | mubritinib -0.068

TMEM109 (UniProt Q9BVC6)
inactive: [1] -0.02 | crizotinib 0.083 | [2] 0.035 | [3] 0.012 | duvelisib 0.071 | gandotinib 0.01 | tozasertib -0.079 | [4] -0.074 | doramapimod -0.054 | ispinesib 0.029 | bafetinib -0.031 | [5] -0.094 | nilotinib 0.002 | [6] 0.024 | dasatinib 0.046 | [7] -0.028 | [8] 0.013 | [9] 0.031 | tipifarnib -0.007 | mubritinib 0.035

TMEM126A (UniProt Q9H061)
inactive: [1] -0.016 | crizotinib 0.059 | [2] 0.101 | [3] -0.064 | duvelisib 0.108 | gandotinib 0.073 | tozasertib -0.03 | [4] -0.101 | doramapimod -0.01 | ispinesib -0.058 | bafetinib -0.05 | [5] -0.008 | nilotinib -0.019 | [6] -0.014 | dasatinib 0.004 | [7] -0.025 | [8] 0.094 | [9] 0.089 | tipifarnib 0.069 | mubritinib 0.052

TMSB10 (UniProt P63313)
inactive: [1] 0.014 | crizotinib 0.098 | [2] 0.234 | [3] -0.15 | duvelisib 0.213 | gandotinib 0.123 | tozasertib 0.007 | [4] 0.031 | doramapimod 0.005 | ispinesib 0.269 | bafetinib -0.055 | [5] -0.112 | nilotinib 0.043 | [6] -0.03 | dasatinib 0.025 | [7] -0.072 | [8] 0.166 | [9] 0.337 | tipifarnib 0.119 | mubritinib 0.005

TMEM165 (UniProt Q9HC07)
inactive: [1] 0.05 | crizotinib 0.038 | [2] -0.052 | [3] 0.019 | duvelisib 0.027 | gandotinib 0.032 | tozasertib -0.056 | [4] -0.005 | doramapimod 0.047 | ispinesib 0.02 | bafetinib 0.074 | [5] -0.115 | nilotinib 0.056 | [6] -0.038 | dasatinib 0.084 | [7] -0.023 | [8] 0.06 | [9] -0.044 | tipifarnib -0.022 | mubritinib 0.013

TMA16 (UniProt Q96EY4)
inactive: [1] -0.02 | crizotinib -0.016 | [2] -0.302 | [3] 0.356 | duvelisib -0.078 | gandotinib 0.206 | tozasertib 0.051 | [4] 0.021 | doramapimod -0.024 | ispinesib -0.178 | bafetinib 0.187 | [5] 0 | nilotinib -0.061 | [6] 0.163 | dasatinib 0.112 | [7] 0.032 | [8] -0.2 | [9] -0.163 | tipifarnib 0.118 | mubritinib -0.033

TMEM135 (UniProt Q86UB9)
inactive: [1] 0.003 | crizotinib 0.015 | [2] 0.106 | [3] 0.05 | duvelisib 0.021 | gandotinib -0.042 | tozasertib -0.013 | [4] -0.017 | doramapimod 0.002 | ispinesib 0.033 | bafetinib -0.035 | [5] -0.047 | nilotinib 0.011 | [6] 0.003 | dasatinib -0.02 | [7] 0.001 | [8] 0.053 | [9] -0.012 | tipifarnib 0.067 | mubritinib -0.029

TMF1 (UniProt P82094)
inactive: [1] -0.033 | crizotinib 0.039 | [2] -0.006 | [3] -0.037 | duvelisib 0.012 | gandotinib -0.003 | tozasertib 0.026 | [4] -0.044 | doramapimod 0.011 | ispinesib 0.004 | bafetinib -0.089 | [5] -0.04 | nilotinib 0.044 | [6] 0.046 | dasatinib 0.04 | [7] 0.036 | [8] -0.014 | [9] 0.007 | tipifarnib 0.021 | mubritinib 0.033

TMEM167A (UniProt Q8TBQ9)
inactive: [1] 0.024 | crizotinib 0.05 | [2] -0.017 | [3] -0.164 | duvelisib 0.067 | gandotinib 0.013 | tozasertib -0.004 | [4] -0.072 | doramapimod -0.167 | ispinesib 0.135 | bafetinib -0.076 | [5] 0.038 | nilotinib 0.047 | [6] -0.024 | dasatinib 0.07 | [7] -0.015 | [8] 0.017 | [9] 0.006 | tipifarnib -0.008 | mubritinib -0.021

TMED4 (UniProt Q7Z7H5)
inactive: [1] 0.018 | crizotinib 0.044 | [2] 0.037 | [3] -0.039 | duvelisib 0.028 | gandotinib 0.018 | tozasertib 0.03 | [4] -0.07 | doramapimod -0.03 | ispinesib 0.062 | bafetinib -0.031 | [5] -0.027 | nilotinib -0.008 | [6] 0.019 | dasatinib 0.052 | [7] 0.009 | [8] 0.102 | [9] 0.066 | tipifarnib -0.043 | mubritinib 0.03

TLE4 isoform 3 (UniProt Q04727)
inactive: [1] -0.039 | crizotinib 0.058 | [2] 0.002 | [3] -0.045 | duvelisib 0.069 | gandotinib 0.015 | tozasertib -0.007 | [4] -0.005 | doramapimod -0.026 | ispinesib 0.045 | bafetinib -0.01 | [5] -0.005 | nilotinib -0.003 | [6] 0.003 | dasatinib -0.036 | [7] -0.038 | [8] 0.033 | [9] 0.045 | tipifarnib 0.007 | mubritinib 0.031

TMEM245 (UniProt Q9H330)
inactive: [1] 0.004 | crizotinib 0.031 | [2] 0.026 | [3] -0.111 | duvelisib 0.052 | gandotinib -0.066 | tozasertib 0 | [4] -0.055 | doramapimod -0.009 | ispinesib 0.006 | bafetinib -0.057 | [5] -0.091 | nilotinib -0.043 | [6] 0.036 | dasatinib -0.03 | [7] 0.016 | [8] -0.024 | [9] 0.15 | tipifarnib 0.009 | mubritinib 0.016

TMPO isoform 2 (UniProt P42167)
inactive: [1] -0.149 | crizotinib 0.122 | [2] -0.114 | [3] 0.067 | duvelisib 0.031 | gandotinib -0.284 | tozasertib -0.069 | [4] 0.056 | doramapimod -0.098 | ispinesib -0.02 | bafetinib 0.173 | [5] -0.198 | nilotinib -0.019 | [6] -0.009 | dasatinib 0.043 | [7] -0.061 | [8] 0.123 | [9] 0.071 | tipifarnib 0.036 | mubritinib 0.074

TMEM160 (UniProt Q9NX00)
inactive: [1] -0.065 | crizotinib -0.198 | [2] -0.074 | [3] 0.162 | duvelisib -0.053 | gandotinib 0.219 | tozasertib -0.064 | [4] -0.136 | doramapimod -0.066 | ispinesib 0.056 | bafetinib 0.061 | [5] -0.114 | nilotinib 0.002 | [6] 0.029 | dasatinib 0.038 | [7] 0.03 | [8] -0.113 | [9] 0.044 | tipifarnib 0.018 | mubritinib -0.087

TMA7 (UniProt Q9Y2S6)
inactive: [1] 0.045 | crizotinib 0.078 | [2] -0.003 | [3] -0.034 | duvelisib 0.044 | gandotinib -0.061 | tozasertib -0.031 | [4] -0.046 | doramapimod -0.034 | ispinesib -0.021 | bafetinib -0.028 | [5] -0.092 | nilotinib 0.007 | [6] -0.029 | dasatinib 0.008 | [7] -0.018 | [8] 0.016 | [9] 0.039 | tipifarnib -0.008 | mubritinib 0.047

2 records picked at random from those above:
TLE4 isoform 3 (UniProt Q04727)
inactive: [1] -0.039 | crizotinib 0.058 | [2] 0.002 | [3] -0.045 | duvelisib 0.069 | gandotinib 0.015 | tozasertib -0.007 | [4] -0.005 | doramapimod -0.026 | ispinesib 0.045 | bafetinib -0.01 | [5] -0.005 | nilotinib -0.003 | [6] 0.003 | dasatinib -0.036 | [7] -0.038 | [8] 0.033 | [9] 0.045 | tipifarnib 0.007 | mubritinib 0.031

TMA16 (UniProt Q96EY4)
inactive: [1] -0.02 | crizotinib -0.016 | [2] -0.302 | [3] 0.356 | duvelisib -0.078 | gandotinib 0.206 | tozasertib 0.051 | [4] 0.021 | doramapimod -0.024 | ispinesib -0.178 | bafetinib 0.187 | [5] 0 | nilotinib -0.061 | [6] 0.163 | dasatinib 0.112 | [7] 0.032 | [8] -0.2 | [9] -0.163 | tipifarnib 0.118 | mubritinib -0.033

Next part.

TMOD3 (UniProt Q9NYL9)
inactive: [1] -0.03 | crizotinib -0.005 | [2] -0.012 | [3] 0.096 | duvelisib 0.026 | gandotinib -0.076 | tozasertib 0.065 | [4] 0.06 | doramapimod -0.005 | ispinesib -0.032 | bafetinib -0.048 | [5] 0.057 | nilotinib -0.061 | [6] -0.09 | dasatinib -0.038 | [7] 0.041 | [8] -0.021 | [9] 0.011 | tipifarnib -0.044 | mubritinib 0.023
